Results taken from paper PMC3679059.

Sequences of proteins named here, by UniProt entry; tags and fusion partners are left off. A change or cut given only in a name is not applied to a line headed by its entry.
UniProt Q7DZ57: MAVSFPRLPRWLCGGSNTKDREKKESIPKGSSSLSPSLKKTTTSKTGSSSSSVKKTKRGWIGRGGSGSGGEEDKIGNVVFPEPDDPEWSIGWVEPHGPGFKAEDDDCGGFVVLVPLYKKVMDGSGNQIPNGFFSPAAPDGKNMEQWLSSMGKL

Experiments:
[1] = target: T1, BAM2-GFP (full-length) (Arabidopsis) (UniProt Q9M2Z1); assay: co-IP; proteins co-expressed in N. benthamiana; soluble membrane fraction after depletion of detergent-resistant membranes (DRM); IP of the GFP fusion, CCI1-FLAG detected
T1 sequence: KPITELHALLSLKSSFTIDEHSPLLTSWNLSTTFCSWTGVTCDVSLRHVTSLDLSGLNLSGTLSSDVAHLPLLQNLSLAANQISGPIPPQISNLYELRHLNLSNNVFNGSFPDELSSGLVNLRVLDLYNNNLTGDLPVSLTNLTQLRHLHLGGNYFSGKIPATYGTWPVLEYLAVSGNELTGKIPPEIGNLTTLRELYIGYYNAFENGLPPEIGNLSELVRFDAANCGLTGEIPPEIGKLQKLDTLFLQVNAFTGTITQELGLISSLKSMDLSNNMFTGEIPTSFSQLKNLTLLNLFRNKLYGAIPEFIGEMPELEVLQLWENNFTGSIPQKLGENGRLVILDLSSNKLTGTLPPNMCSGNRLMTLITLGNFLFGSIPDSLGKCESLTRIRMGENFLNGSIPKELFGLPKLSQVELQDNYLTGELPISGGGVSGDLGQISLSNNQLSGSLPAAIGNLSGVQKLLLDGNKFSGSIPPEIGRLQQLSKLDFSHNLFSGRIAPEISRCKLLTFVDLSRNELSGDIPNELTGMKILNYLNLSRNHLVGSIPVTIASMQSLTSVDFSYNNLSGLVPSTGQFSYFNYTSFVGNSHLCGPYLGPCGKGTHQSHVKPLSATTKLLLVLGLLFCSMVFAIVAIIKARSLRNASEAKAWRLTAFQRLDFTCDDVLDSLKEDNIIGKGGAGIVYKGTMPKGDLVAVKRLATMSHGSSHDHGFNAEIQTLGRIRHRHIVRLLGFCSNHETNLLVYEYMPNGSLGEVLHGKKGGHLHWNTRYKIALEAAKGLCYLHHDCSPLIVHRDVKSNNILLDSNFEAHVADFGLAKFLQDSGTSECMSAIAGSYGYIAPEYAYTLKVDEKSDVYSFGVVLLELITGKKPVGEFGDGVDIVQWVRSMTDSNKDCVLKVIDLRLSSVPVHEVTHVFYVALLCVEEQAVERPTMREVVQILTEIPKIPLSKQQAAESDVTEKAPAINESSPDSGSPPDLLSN

[2] = target: T2, BAM1-GFP (full-length) (Arabidopsis) (UniProt O49545); assay: co-IP; proteins co-expressed in the same N. benthamiana leaves; total membrane fraction solubilised with 1% triton X-100; IP with anti-GFP and protein A agarose at 4°C, blot with anti-FLAG
T2 sequence: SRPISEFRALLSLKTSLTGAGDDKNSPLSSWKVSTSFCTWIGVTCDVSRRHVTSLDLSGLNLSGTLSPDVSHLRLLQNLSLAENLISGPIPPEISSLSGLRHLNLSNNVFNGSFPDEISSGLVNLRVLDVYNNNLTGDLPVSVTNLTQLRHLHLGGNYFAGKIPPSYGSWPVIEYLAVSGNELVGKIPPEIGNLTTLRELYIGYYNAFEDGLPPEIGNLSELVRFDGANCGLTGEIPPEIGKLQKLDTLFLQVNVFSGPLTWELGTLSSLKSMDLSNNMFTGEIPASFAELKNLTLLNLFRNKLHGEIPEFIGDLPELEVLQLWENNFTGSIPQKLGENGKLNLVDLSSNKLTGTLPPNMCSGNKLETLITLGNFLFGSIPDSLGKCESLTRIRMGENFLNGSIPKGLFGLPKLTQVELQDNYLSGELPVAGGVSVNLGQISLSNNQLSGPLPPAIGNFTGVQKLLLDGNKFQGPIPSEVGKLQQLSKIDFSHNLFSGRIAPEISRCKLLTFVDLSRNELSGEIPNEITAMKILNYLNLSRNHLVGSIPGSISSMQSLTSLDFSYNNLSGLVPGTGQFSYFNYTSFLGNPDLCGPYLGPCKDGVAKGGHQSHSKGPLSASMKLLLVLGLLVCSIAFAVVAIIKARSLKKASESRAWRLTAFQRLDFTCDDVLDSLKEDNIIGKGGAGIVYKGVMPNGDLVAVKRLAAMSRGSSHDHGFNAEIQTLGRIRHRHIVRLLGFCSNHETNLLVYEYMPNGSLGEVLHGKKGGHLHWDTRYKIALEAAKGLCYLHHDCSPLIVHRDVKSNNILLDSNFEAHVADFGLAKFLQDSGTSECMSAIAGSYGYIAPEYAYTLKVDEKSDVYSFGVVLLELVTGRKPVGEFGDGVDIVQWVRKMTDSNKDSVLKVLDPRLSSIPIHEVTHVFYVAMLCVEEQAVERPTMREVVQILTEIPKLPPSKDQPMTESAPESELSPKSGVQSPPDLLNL

[3] = target: T3, CLV2-GFP (full-length) (Arabidopsis) (UniProt O80809); assay: as above
T3 sequence: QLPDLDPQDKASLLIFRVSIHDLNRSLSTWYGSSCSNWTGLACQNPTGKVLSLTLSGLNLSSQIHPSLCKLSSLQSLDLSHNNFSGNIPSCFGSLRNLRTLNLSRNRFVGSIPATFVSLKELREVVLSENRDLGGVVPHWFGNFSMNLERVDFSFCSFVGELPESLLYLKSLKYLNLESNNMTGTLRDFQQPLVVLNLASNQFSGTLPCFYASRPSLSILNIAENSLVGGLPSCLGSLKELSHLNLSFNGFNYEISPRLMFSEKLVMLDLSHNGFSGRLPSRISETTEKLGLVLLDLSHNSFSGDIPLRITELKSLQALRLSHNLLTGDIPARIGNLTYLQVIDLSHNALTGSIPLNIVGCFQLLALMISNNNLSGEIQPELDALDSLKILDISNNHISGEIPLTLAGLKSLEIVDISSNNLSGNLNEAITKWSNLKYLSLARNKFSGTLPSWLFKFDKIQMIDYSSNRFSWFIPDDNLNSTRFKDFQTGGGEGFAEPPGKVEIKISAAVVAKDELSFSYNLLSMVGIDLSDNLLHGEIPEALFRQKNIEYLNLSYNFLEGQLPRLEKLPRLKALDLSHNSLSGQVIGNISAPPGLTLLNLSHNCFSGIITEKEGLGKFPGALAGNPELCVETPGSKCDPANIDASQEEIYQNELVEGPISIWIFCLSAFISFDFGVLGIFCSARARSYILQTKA

binding [1]: binds | binding [2]: binds | binding [3]: binds
Substance: CCI1-FLAG (from UniProt Q7DZ57)

These are yes or no findings as the source states them, for the method shown. Binding seen in cells or lysates may run through a third protein. Binding can be weak; no strength is given. Tags and fused reporters may be left off the sequences shown.
